Laboratory results published in article PMC6166629.
No constants are given. Whether binding was seen depends on the method and setting. Binding seen in cells or lysates may run through a third protein. A yes stands for co-enrichment or nearness to the bait. Other partners may have been found.

The chains behind the UniProt entries cited, without tags or fusion partners. Residues count along the entry.
UniProt P25705, residues 44-553: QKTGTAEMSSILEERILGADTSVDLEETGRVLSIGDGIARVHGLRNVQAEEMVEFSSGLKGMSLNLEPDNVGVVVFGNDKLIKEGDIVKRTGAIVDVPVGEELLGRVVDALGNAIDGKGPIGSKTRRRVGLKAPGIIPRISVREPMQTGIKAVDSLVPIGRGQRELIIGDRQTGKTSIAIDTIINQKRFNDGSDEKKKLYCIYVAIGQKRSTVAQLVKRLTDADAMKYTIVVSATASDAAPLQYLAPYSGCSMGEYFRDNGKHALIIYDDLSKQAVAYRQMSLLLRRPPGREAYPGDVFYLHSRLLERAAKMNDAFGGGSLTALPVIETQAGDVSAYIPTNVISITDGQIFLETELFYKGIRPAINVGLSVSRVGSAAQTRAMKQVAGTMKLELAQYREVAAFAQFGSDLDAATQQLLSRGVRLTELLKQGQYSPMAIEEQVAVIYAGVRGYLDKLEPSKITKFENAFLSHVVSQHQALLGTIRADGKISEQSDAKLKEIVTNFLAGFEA

Target: T1, UPF0587 protein C1orf123 (human (endogenous in HeLa)) (UniProt Q9NWV4)
T1 sequence: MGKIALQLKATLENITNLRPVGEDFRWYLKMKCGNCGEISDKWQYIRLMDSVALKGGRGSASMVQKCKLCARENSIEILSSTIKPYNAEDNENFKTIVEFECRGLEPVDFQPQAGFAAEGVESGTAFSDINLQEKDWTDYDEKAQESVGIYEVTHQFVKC
Assay: affinity purification with mass spectrometry; rabbit anti-C1ORF123 IgG (6 ug) with HeLa cell lysate, overnight 4 °C, protein A/G magnetic beads, binding buffer 0.025 M Tris, 0.15 M NaCl, 0.001 M EDTA, 1% NP40, 5% glycerol; elution with glycine pH 2; nanoLC-Orbitrap MS; hits had to be found both in this sample and in a second lysate with 60 ug purified rC1ORF123 added, and not in the rabbit IgG control

binding: binds
Substance: ATP synthase subunit alpha, mitochondria (from UniProt P25705 44-553)
